No constants are given. Whether binding was seen depends on the method and setting. In cells and extracts the contact can be indirect. Tags and fused reporters may be left off the sequences shown.
T1: EGFP-fused ARL6∆N15(Q73L) (UniProt Q9H0F7)
T1 sequence: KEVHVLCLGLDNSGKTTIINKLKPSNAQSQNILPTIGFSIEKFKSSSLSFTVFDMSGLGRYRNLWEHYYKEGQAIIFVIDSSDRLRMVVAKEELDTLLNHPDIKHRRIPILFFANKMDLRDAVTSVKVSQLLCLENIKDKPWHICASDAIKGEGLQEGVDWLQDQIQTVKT

B1: mChe-fused BBS9 (protein, UniProt Q3SYG4 1-887)
chain: MSLFKARDWWSTILGDKEEFDQGCLCLANVDNSGNGQDKIIVGSFMGYLRIFSPHPAKTGDGAQAEDLLLEVDLRDPVLQVEVGKFVSGTEMLHLAVLHSRKLCVYSVSGTLGNVEHGNQCQMKLMYEHNLQRTACNMTYGSFGGVKGRDLICIQSMDGMLMVFEQESYAFGRFLPGFLLPGPLAYSSRTDSFLTVSSCQQVESYKYQVLAFATDADKRQETEQQKLGSGKRLVVDWTLNIGEQALDICIVSFNQSASSVFVLGERNFFCLKDNGQIRFMKKLDWSPSCFLPYCSVSEGTINTLIGNHNNMLHIYQDVTLKWATQLPHIPVAVRVGCLHDLKGVIVTLSDDGHLQCSYLGTDPSLFQAPNVQSRELNYDELDVEMKELQKIIKDVNKSQGVWPMTEREDDLNVSVVVSPNFDSVSQATDVEVGTDLVPSVTVKVTLQNRVILQKAKLSVYVQPPLELTCDQFTFEFMTPDLTRTVSFSVYLKRSYTPSELEGNAVVSYSRPTDRNPDGIPRVIQCKFRLPLKLICLPGQPSKTASHKITIDTNKSPVSLLSLFPGFASQSDDDQVNVMGFHFLGGARITVLASKTSQRYRIQSEQFEDLWLITNELILRLQEYFEKQGVKDFACSFSGSIPLQEYFELIDHHFELRINGEKLEELLSERAVQFRAIQRRLLARFKDKTPAPLQHLDTLLDGTYKQVIALADAVEENQGNLFQSFTRLKSATHLVILLIALWQKLSADQVAILEAAFLPLQEDTQELGWEETVDAAISHLLKTCLSKSSKEQALNLNSQLNIPKDTSQLKKHITLLCDRLSKGGRLCLSTDAAAPQTMVMPGGCTTIPESDLEERSVEQDSTELFTNHRHLTAETPRPEVSPLQGVSE
B2: mChe-fused BBS18 (protein, UniProt A8MTZ0 1-92)
chain: MLKAAAKRPELSGKNTISNNSDMAEVKSMFREVLPKQGPLFVEDIMTMVLCKPKLLPLKSLTLEKLEKMHQAAQNTIRQQEMAEKDQRQITH
B3: mChe-fused BBS2 (protein, UniProt Q9BXC9 1-721)
chain: MLLPVFTLKLRHKISPRMVAIGRYDGTHPCLAAATQTGKVFIHNPHTRNQHVSASRVFQSPLESDVSLLSINQAVSCLTAGVLNPELGYDALLVGTQTNLLAYDVYNNSDLFYREVADGANAIVLGTLGDISSPLAIIGGNCALQGFNHEGSDLFWTVTGDNVNSLALCDFDGDGKKELLVGSEDFDIRVFKEDEIVAEMTETEIVTSLCPMYGSRFGYALSNGTVGVYDKTSRYWRIKSKNHAMSIHAFDLNSDGVNELITGWSNGKVDARSDRTGEVIFKDNFSSAIAGVVEGDYRMDGHIQLICCSVDGEIRGYLPGTAEMRGNLMDTSAEQDLIRELSQKKQNLLLELRNYEENAKAELASPLNEADGHRGIIPANTRLHTTLSVSLGNETQTAHTELRISTSNDTIIRAVLIFAEGIFTGESHVVHPSIHNLSSSICIPIVPPKDVPVDLHLKAFVGYRSSTQFHVFESTRQLPRFSMYALTSLDPASEPISYVNFTIAERAQRVVVWLGQNFLLPEDTHIQNAPFQVCFTSLRNGGHLHIKIKLSGEITINTDDIDLAGDIIQSMASFFAIEDLQVEADFPVYFEELRKVLVKVDEYHSVHQKLSADMADHSNLIRSLLVGAEDARLMRDMKTMKSRYMELYDLNRDLLNGYKIRCNNHTELLGNLKAVNQAIQRAGRLRVGKPKNQVITACRDAIRSNNINTLFKIMRVGTASS
B4: mChe-fused BBS4 (protein, UniProt Q96RK4 1-519)
chain: MAEERVATRTQFPVSTESQKPRQKKAPEFPILEKQNWLIHLHYIRKDYEACKAVIKEQLQETQGLCEYAIYVQALIFRLEGNIQESLELFQTCAVLSPQSADNLKQVARSLFLLGKHKAAIEVYNEAAKLNQKDWEISHNLGVCYIYLKQFNKAQDQLHNALNLNRHDLTYIMLGKIHLLEGDLDKAIEVYKKAVEFSPENTELLTTLGLLYLQLGIYQKAFEHLGNALTYDPTNYKAILAAGSMMQTHGDFDVALTKYRVVACAVPESPPLWNNIGMCFFGKKKYVAAISCLKRANYLAPFDWKILYNLGLVHLTMQQYASAFHFLSAAINFQPKMGELYMLLAVALTNLEDIENAKRAYAEAVHLDKCNPLVNLNYAVLLYNQGEKKNALAQYQEMEKKVSLLKDNSSLEFDSEMVEMAQKLGAALQVGEALVWTKPVKDPKSKHQTTSTSKPASFQQPLGSNQALGQAMSSAAAYRTLPSGAGGTSQFTKPPSLPLEPEPAVESSPTETSEQIREK
B5: mChe-fused BBS5 (protein, UniProt Q8N3I7 1-341)
chain: MSVLDALWEDRDVRFDLSAQQMKTRPGEVLIDCLDSIEDTKGNNGDRGRLLVTNLRILWHSLALSRVNVSVGYNCILNITTRTANSKLRGQTEALYILTKCNSTRFEFIFTNLVPGSPRLFTSVMAVHRAYETSKMYRDFKLRSALIQNKQLRLLPQEHVYDKINGVWNLSSDQGNLGTFFITNVRIVWHANMNDSFNVSIPYLQIRSIKIRDSKFGLALVIESSQQSGGYVLGFKIDPVEKLQESVKEINSLHKVYSASPIFGVDYEMEEKPQPLEALTVEQIQDDVEIDSDGHTDAFVAYFADGNKQQDREPVFSEELGLAIEKLKDGFTLQGLWEVMS
B6: mChe-fused BBS7 (protein, UniProt Q8IWZ6 1-715)
chain: MDLILNRMDYLQVGVTSQKTMKLIPASRHRATQKVVIGDHDGVVMCFGMKKGEAAAVFKTLPGPKIARLELGGVINTPQEKIFIAAASEIRGFTKRGKQFLSFETNLTESIKAMHISGSDLFLSASYIYNHYCDCKDQHYYLSGDKINDVICLPVERLSRITPVLACQDRVLRVLQGSDVMYAVEVPGPPTVLALHNGNGGDSGEDLLFGTSDGKLALIQITTSKPVRKWEIQNEKKRGGILCIDSFDIVGDGVKDLLVGRDDGMVEVYSFDNANEPVLRFDQMLSESVTSIQGGCVGKDSYDEIVVSTYSGWVTGLTTEPIHKESGPGEELKINQEMQNKISSLRNELEHLQYKVLQERENYQQSSQSSKAKSAVPSFGINDKFTLNKDDASYSLILEVQTAIDNVLIQSDVPIDLLDVDKNSAVVSFSSCDSESNDNFLLATYRCQADTTRLELKIRSIEGQYGTLQAYVTPRIQPKTCQVRQYHIKPLSLHQRTHFIDHDRPMNTLTLTGQFSFAEVHSWVVFCLPEVPEKPPAGECVTFYFQNTFLDTQLESTYRKGEGVFKSDNISTISILKDVLSKEATKRKINLNISYEINEVSVKHTLKLIHPKLEYQLLLAKKVQLIDALKELQIHEGNTNFLIPEYHCILEEADHLQEEYKKQPAHLERLYGMITDLFIDKFKFKGTNVKTKVPLLLEILDSYDQNALISFFDAA
B7: mChe-fused BBS8 (protein, UniProt Q8TAM2 1-541)
chain: MSSEMEPLLLAWSYFRRRKFQLCADLCTQMLEKSPYDQEPDPELPVHQAAWILKARALTEMVYIDEIDVDQEGIAEMMLDENAIAQVPRPGTSLKLPGTNQTGGPSQAVRPITQAGRPITGFLRPSTQSGRPGTMEQAIRTPRTAYTARPITSSSGRFVRLGTASMLTSPDGPFINLSRLNLTKYSQKPKLAKALFEYIFHHENDVKTIHLEDVVLHLGIYPFLLRNKNHIEKNALDLAALSTEHSQYKDWWWKVQIGKCYYRLGMYREAEKQFKSALKQQEMVDTFLYLAKVYVSLDQPVTALNLFKQGLDKFPGEVTLLCGIARIYEEMNNMSSAAEYYKEVLKQDNTHVEAIACIGSNHFYSDQPEIALRFYRRLLQMGIYNGQLFNNLGLCCFYAQQYDMTLTSFERALSLAENEEEAADVWYNLGHVAVGIGDTNLAHQCFRLALVNNNNHAEAYNNLAVLEMRKGHVEQARALLQTASSLAPHMYEPHFNFATISDKIGDLQRSYVAAQKSEAAFPDHVDTQHLIKQLRQHFAML

What follows are binders tested against T1, EGFP-fused ARL6∆N15(Q73L) (assay: co-IP; VIP assay: lysates of HEK293T cells co-expressing an EGFP-fused and an mChe- or tRFP-fused protein (HMDEKN buffer: 10 mM HEPES pH 7.4, 5 mM MgSO4, 1 mM DTT, 0.5 mM EDTA, 25 mM KCl, 0.5% NP-40); EGFP fusion precipitated with GST-anti-GFP nanobody on glutathione-Sepharose beads; beads read by fluorescence microscopy and, for some pairs, by immunoblotting).

binding, no binding:
B1
B2
B3
B4
B5
B6
B7
